Among the data in the supplement of paper PMC10735217 are TEAD-luciferase reporter activity values, retold here.

The structures appear in SMILES notation. The list shows a part of the results. Repeats in this data set agree poorly, so a single value says little.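 The human kidney-derived cells carry a stably integrated construct of eight TEAD-binding elements driving luciferase, read by luminescence in a drug-repurposing library screen. A compound counts as a hit when its signal is more than five robust Z scores above the plate mean.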

This assay concerns HEK293A TEAD-LUC reporter. The assay can be described thus: TEAD-luciferase reporter activity (YAP activation), robust Z score vs plate; higher = stronger YAP/TEAD activation. To be noted: 24 h. A general note: Reporter assays use an easily measured gene product as a stand-in for the process of interest.

As to `O=C(NCC1CCOCC1)c1cnc(Nc2ccc(Cl)cc2Cl)cc1C1CC1`, the TEAD-luciferase reporter activity is inactive: -1.41 (compound concentration: 200 nM), inactive: 2.7 (compound concentration: 2 uM) and inactive: 0.979 (compound concentration: 10 uM).
Turning to `CCCc1cc2c(s1)CN[C@@H]1CCc3cc(OC(C)=O)c(OC(C)=O)cc3[C@@H]21`, the TEAD-luciferase reporter activity by setting is: (compound concentration: 200 nM) inactive: -1.49; (compound concentration: 2 uM) inactive: 3.7; (compound concentration: 10 uM) active: 5.77.
As for `CCC(COCc1cc(OC)c(OC)c(OC)c1)(c1ccccc1)N(C)C` (stereo unspecified), the TEAD-luciferase reporter activity by setting is: (compound concentration: 200 nM) inactive: -1.36; (compound concentration: 2 uM) inactive: -0.837; (compound concentration: 10 uM) inactive: 0.747.
Regarding `C=CCN(C1=NCCN1)c1c(Cl)cccc1Cl` [Alinidine], the TEAD-luciferase reporter activity reads like this: (compound concentration: 200 nM) inactive: -1.89; (compound concentration: 2 uM) inactive: -1.37; (compound concentration: 10 uM) inactive: -0.569.
In the same order, the values of `CCCN1CC[C@H]2c3cc(O)ccc3CC[C@H]21` are inactive: -0.204, inactive: -0.847 and inactive: 1.74.
For `Cc1ccc(F)cc1NC1=NCCN1` [flutonidine], the TEAD-luciferase reporter activity by setting is: (compound concentration: 200 nM) inactive: 3.17; (compound concentration: 2 uM) inactive: 1.33; (compound concentration: 10 uM) inactive: -1.47.
In the same order, the values of `CCc1c(C)cc(C(=O)NC2(C(=O)O)CCCCC2)c(=O)n1Cc1ccc(F)cc1` are inactive: -0.962, inactive: -0.34 and inactive: -1.35.
Take `COC(=O)C1=CCCN(C)C1` [arecoline, transdermal]: the TEAD-luciferase reporter activity (compound concentration: 2 uM) was inactive: -0.872.
On to `COC(=O)C1=CCCN(C)C1`, for which the TEAD-luciferase reporter activity is inactive: -1.02 (compound concentration: 200 nM) and inactive: -0.0772 (compound concentration: 10 uM).
Consider `Cc1ncc([N+](=O)[O-])n1CCOC(N)=O`, for which the TEAD-luciferase reporter activity by setting is: (compound concentration: 200 nM) inactive: -1.37; (compound concentration: 2 uM) inactive: 0.834; (compound concentration: 10 uM) inactive: 0.145.
As for `CN1C(=O)CN(C(N)=O)C(c2ccccc2)c2cc(Cl)ccc21` (stereo unspecified), the TEAD-luciferase reporter activity runs as follows: (compound concentration: 200 nM) inactive: -0.141; (compound concentration: 2 uM) inactive: -0.876; (compound concentration: 10 uM) inactive: -0.153.
As for `CC(C)C(NC(=O)c1ccc(C(=O)NCC(=O)O)cc1)C(=O)N1CCC[C@H]1C(=O)NC(C(=O)C(F)(F)F)C(C)C` (stereo partly specified), the TEAD-luciferase reporter activity runs as follows: (compound concentration: 200 nM) inactive: 0.195; (compound concentration: 2 uM) inactive: -0.623; (compound concentration: 10 uM) inactive: 0.561.
Regarding `CCNC1(c2cccs2)CCCCC1=O` (stereo unspecified), the TEAD-luciferase reporter activity was inactive: 1.12 (compound concentration: 200 nM), inactive: -1.43 (compound concentration: 2 uM) and inactive: 0.684 (compound concentration: 10 uM).
As for `COc1cc2c(c(OC)c1OC)-c1ccc(OC)c(=O)cc1[C@@H](NC(C)=O)CC2`, the TEAD-luciferase reporter activity reads like this: (compound concentration: 200 nM) inactive: 2.44; (compound concentration: 10 uM) active: 11.3.
`COc1cc2c(c(OC)c1OC)-c1ccc(OC)c(=O)cc1[C@@H](NC(C)=O)CC2` [colchicine]: the TEAD-luciferase reporter activity (compound concentration: 2 uM) was active: 12.
For the molecule `COCN1C(=O)N(COC)C(=O)C(c2ccccc2)(c2ccccc2)C1=O`, the TEAD-luciferase reporter activity is inactive: -0.68 (compound concentration: 200 nM), inactive: 0.535 (compound concentration: 2 uM) and inactive: -0.0309 (compound concentration: 10 uM).
In the same order, the values of `O=C(N[C@H]1C2CCN(CC2)[C@@H]1Cc1cccnc1)c1cc2ccccc2o1` [Bradanicline] are inactive: 0.11, inactive: 1.92 and inactive: 0.831.
On to `COc1ccc(O)c(C(C)(C)C)c1`, for which the TEAD-luciferase reporter activity runs as follows: (compound concentration: 200 nM) active: 8.71; (compound concentration: 2 uM) inactive: -0.357; (compound concentration: 10 uM) inactive: -0.811.
Consider `C=C(C)[C@@H]1CCC(C)=C[C@H]1c1c(O)cc(CCCCC)cc1O` [Cannabidiol], for which the TEAD-luciferase reporter activity is, setting by setting: (compound concentration: 200 nM) inactive: 4.38; (compound concentration: 2 uM) inactive: -0.603; (compound concentration: 10 uM) inactive: 2.35.
As to `CC(C)c1ccc(NC(=O)Oc2ccc3c(c2)[C@]2(C)CCN[C@@H]2N3)cc1`, the TEAD-luciferase reporter activity runs as follows: (compound concentration: 200 nM) inactive: -1.02; (compound concentration: 2 uM) inactive: -0.756; (compound concentration: 10 uM) inactive: 1.06.
Take `CC(C)Cc1noc(C2CC3CCC2N3)n1` (stereo unspecified): the TEAD-luciferase reporter activity was inactive: -0.798 (compound concentration: 200 nM), inactive: -0.848 (compound concentration: 2 uM) and inactive: -0.0598 (compound concentration: 10 uM).
In the same order, the values of `Cc1nc(Cl)c(Cl)n1CCCCN1CC=C(c2cccc(C(F)(F)F)c2)CC1` are inactive: -1.02, inactive: -0.719 and inactive: 2.51.
Take `CNC(C)Cc1ccccc1OC` (stereo unspecified): the TEAD-luciferase reporter activity was inactive: -2.31 (compound concentration: 200 nM), inactive: 0.328 (compound concentration: 2 uM) and inactive: -1.61 (compound concentration: 10 uM).
In the same order, the values of `C[C@]1(O)CC[C@H]2[C@@H]3CC[C@@]45O[C@]4(C)C(O)=C(C#N)C[C@]5(C)[C@H]3CC[C@@]21C` [epostane] are inactive: -1.25, inactive: -0.43 and inactive: -0.512.
In the same order, the values of `CO[C@H]1C[C@H](O[C@H]2CC[C@@]3(C)[C@H](CC[C@@H]4[C@@H]3CC[C@]3(C)[C@@H](C5=CC(=O)OC5)[C@@H](OC(C)=O)C[C@]43O)C2)O[C@@H](C)[C@@H]1O` [Oleandrin] are active: 6.18, inactive: -2.08 and inactive: 4.09.
`N#Cc1ccc(N2CCCC2C(O)C(F)(F)F)cc1C(F)(F)F` (stereo unspecified): the TEAD-luciferase reporter activity (compound concentration: 200 nM) was inactive: 2.43, the TEAD-luciferase reporter activity (compound concentration: 2 uM) was inactive: -1.18 and the TEAD-luciferase reporter activity (compound concentration: 10 uM) was inactive: -0.0863.
In the same order, the values of `CCCCCCCC(C)c1cc(OC(=O)CCCN(CC)CC)c2c(c1)OC(C)(C)C1=C2CC(C)CC1` (stereo unspecified) are inactive: -2.06, inactive: -1.33 and inactive: 2.53.
On to `O[C@H]1[C@H](O)[C@@H](O)CN2CC[C@H](O)[C@H]12` [Castanospermine], for which, under “compound concentration: 2 uM”, the TEAD-luciferase reporter activity was inactive: -0.87.
Turning to `O[C@H]1[C@H](O)[C@@H](O)CN2CC[C@H](O)[C@H]12`, the TEAD-luciferase reporter activity was inactive: 2.93 (compound concentration: 200 nM) and inactive: -0.0312 (compound concentration: 10 uM).
As to `c1ccc2c(c1)Nc1ccccc1S2`, the TEAD-luciferase reporter activity by setting is: (compound concentration: 200 nM) inactive: -0.799; (compound concentration: 10 uM) inactive: -0.181.
For `c1ccc2c(c1)Nc1ccccc1S2` [Phenothiazine], where the note is “compound concentration: 2 uM”, the TEAD-luciferase reporter activity was inactive: -0.256.
